In the supplement of paper PMC4604168 (melanoma cell lines):
This is one part of the list. Repeats are few or missing, and single values can be far off.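 Cells were imaged in 1,536-well plates, and nuclei stained with an antibody against cleaved PARP were counted against all DNA-stained nuclei to give the apoptosis fraction. Screening doses were chosen to leave most cells alive, and resting and induced cleaved-PARP levels differ strongly between cell lines.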

The molecules below were run on CBRC014 (line from a melanoma biopsy) (assay: cleaved PARP positive nuclei fraction relative to DMSO control; melanoma cells; higher = more apoptosis). Details: library dose: low library concentration; 72 h.

Row | Compound | cleaved PARP positive nuclei fraction [%]
1 | NC1(c2ccc(-c3nc4ccn5c(=O)[nH]nc5c4cc3-c3ccccc3)cc2)CCC1 + CCCS(=O)(=O)Nc1ccc(F)c(C(=O)c2c[nH]c3ncc(Cl)cc23)c1F [PLX4720] (first compound 0.4 µM, partner dose 0.08 µM) | 84.8
2 | NC(=O)c1ccc(N(C(N)=O)c2c(F)cccc2F)nc1-c1ccc(F)cc1F + C#Cc1cccc(Nc2ncnc3cc(OCCOC)c(OCCOC)cc23)c1 [erlotinib] (first compound 0.4 µM, partner dose 0.8 µM) | 97.2
3 | C[C@@H](N)c1ccc(C(=O)Nc2ccnc3[nH]ccc23)cc1 + Cn1sc(=O)n(Cc2ccccc2)c1=O [TDZD-8] (first compound 0.4 µM, partner dose 0.4 µM) | 85.5
4 | CS(=O)(=O)c1ccc(C(=O)Nc2ccc(Cl)c(-c3ccccn3)c2)c(Cl)c1 [vismodegib] + CCCCCCCCc1ccc(CCC(N)(CO)CO)cc1 [fingolimod] (first compound 1 µM, partner dose 2 µM) | 97.3
5 | Cn1cnc2c(F)c(Nc3ccc(Br)cc3Cl)c(C(=O)NOCCO)cc21 [selumetinib] + C#Cc1cccc(Nc2ncnc3cc(OCCOC)c(OCCOC)cc23)c1 [erlotinib] (first compound 0.015 µM, partner dose 0.8 µM) | 99.2
6 | CC1(C)CCC(c2ccc(Cl)cc2)=C(CN2CCN(c3ccc(C(=O)NS(=O)(=O)c4ccc(N[C@H](CCN5CCOCC5)CSc5ccccc5)c(S(=O)(=O)C(F)(F)F)c4)cc3)CC2)C1 + CS(=O)(=O)CCNCc1ccc(-c2ccc3ncnc(Nc4ccc(OCc5cccc(F)c5)c(Cl)c4)c3c2)o1 [lapatinib] (first compound 0.4 µM, partner dose 0.8 µM) | 449
7 | CC1(C)CCC(c2ccc(Cl)cc2)=C(CN2CCN(c3ccc(C(=O)NS(=O)(=O)c4ccc(N[C@H](CCN5CCOCC5)CSc5ccccc5)c(S(=O)(=O)C(F)(F)F)c4)cc3)CC2)C1 + O=C(O)[C@@H]1[O][Sb](=[O])([O][Sb]2(=[O])[O][C@H]([C@H](O)CO)[C@H](O)[C@H](C(=O)O)[O]2)[O][C@H]([C@H](O)CO)[C@@H]1O [stibogluconate] (first compound 0.4 µM, partner dose 2 µM) | 402
8 | CC1(C)CCC(c2ccc(Cl)cc2)=C(CN2CCN(c3ccc(C(=O)NS(=O)(=O)c4ccc(N[C@H](CCN5CCOCC5)CSc5ccccc5)c(S(=O)(=O)C(F)(F)F)c4)cc3)CC2)C1 + Nc1ccn([C@@H]2O[C@H](CO)[C@@H](O)C2(F)F)c(=O)n1 [gemcitabine] (first compound 0.4 µM, partner dose 0.0004 µM) | 1660
9 | C[C@]1(O)C[C@@H](c2nc(-c3ccc4ccc(-c5ccccc5)nc4c3)c3c(N)nccn32)C1 + CC(=O)O[C@@]12CO[C@@H]1C[C@H](O)[C@@]1(C)C(=O)[C@H](O)C3=C(C)[C@@H](OC(=O)[C@H](O)[C@@H](NC(=O)OC(C)(C)C)c4ccccc4)C[C@@](O)([C@@H](OC(=O)c4ccccc4)[C@H]21)C3(C)C [Docetaxel] (first compound 0.4 µM, partner dose 0.0001 µM) | 117
10 | CC1(C)CCC(c2ccc(Cl)cc2)=C(CN2CCN(c3ccc(C(=O)NS(=O)(=O)c4ccc(N[C@H](CCN5CCOCC5)CSc5ccccc5)c(S(=O)(=O)C(F)(F)F)c4)cc3)CC2)C1 + Cn1sc(=O)n(Cc2ccccc2)c1=O [TDZD-8] (first compound 0.4 µM, partner dose 0.4 µM) | 529
11 | C[C@]1(O)C[C@@H](c2nc(-c3ccc4ccc(-c5ccccc5)nc4c3)c3c(N)nccn32)C1 + OCc1c[nH]c2ccccc12 [Indole-3-carbinol] (first compound 0.4 µM, partner dose 0.8 µM) | 110
12 | CN(c1ncccc1CNc1nc(Nc2ccc3c(c2)CC(=O)N3)ncc1C(F)(F)F)S(C)(=O)=O + C[C@]1(c2nc3c(C(N)=O)cccc3[nH]2)CCCN1 [Veliparib] (first compound 0.08 µM, partner dose 1.4 µM) | 116
13 | C[C@]1(O)C[C@@H](c2nc(-c3ccc4ccc(-c5ccccc5)nc4c3)c3c(N)nccn32)C1 + CCCS(=O)(=O)Nc1ccc(F)c(C(=O)c2c[nH]c3ncc(Cl)cc23)c1F [PLX4720] (first compound 0.4 µM, partner dose 0.08 µM) | 120

Two entries drawn at random from the list so far:
Row | Compound | cleaved PARP positive nuclei fraction [%]
12 | CN(c1ncccc1CNc1nc(Nc2ccc3c(c2)CC(=O)N3)ncc1C(F)(F)F)S(C)(=O)=O + C[C@]1(c2nc3c(C(N)=O)cccc3[nH]2)CCCN1 [Veliparib] (first compound 0.08 µM, partner dose 1.4 µM) | 116
13 | C[C@]1(O)C[C@@H](c2nc(-c3ccc4ccc(-c5ccccc5)nc4c3)c3c(N)nccn32)C1 + CCCS(=O)(=O)Nc1ccc(F)c(C(=O)c2c[nH]c3ncc(Cl)cc23)c1F [PLX4720] (first compound 0.4 µM, partner dose 0.08 µM) | 120
